In publication PMC12040169 (PLOS Biology, 2025):
This is one part of the list.

Tested on: T1, CTL2-GFP (C. trachomatis L2/434/Bu, GFP-expressing)
T1 construct: L2/434/Bu, GFP-expressing
Parameters: species or system HeLa; Intracellular C. trachomatis growth in HeLa cells, bulk GFP fluorescence relative to DMSO
Settings: bulk GFP, single well; 28.5 h, 10 µM; inhibitor

SMILES	% of control remaining
CC1Cc2ccccc2N1C(=O)C1C2C=CC(O2)C1C(=O)O (stereo not shown) [CBK286891]	122.147%
CC(=O)NS(=O)(=O)c1ccc(NC(=N)Nc2nc(C)cc(C)n2)cc1 [CBK263117C]	94.7039%
COc1cc(C(=O)N2CCN(C(=O)c3ccco3)CC2)cc(OC)c1OC [CBK144476]	112.855%
CCOC(=O)C1(C2CCCCC2)CCN(C(=O)/C=C/c2ccc3c(c2)OCO3)CC1 [CBK136924]	84.5348%
CC1(C#N)CCCN(C(=O)NC2CCN(Cc3cccc(O)c3)CC2)C1 (stereo not shown) [CBK306787]	121.212%
Cc1ccc(S(=O)(=O)N(CC(=O)O)c2ccc(C(C)C)cc2)cc1 [CBK287116]	111.978%
CCOC(=O)C1(C2CCCCC2)CCN(C(=O)C2CCN(C)CC2)CC1 [CBK136948]	96.0089%
COc1ccc(CNC(=O)c2cc(O)nc3ccccc23)cc1OC [CBK296763]	151.036%
Cc1cc(C)c2c(n1)OC(N1CCOCC1)(C(F)(F)F)CC2=O (stereo not shown) [CBK267301]	153.467%
Cc1nc2nc(N)nn2c(C)c1CCC(=O)NCc1ccccc1 [CBK304986]	135.412%
CCN(CCN(C)C)Cc1ccc(F)cc1F [CBK261877]	121.267%
Oc1ccc2ccccc2c1/C=N/c1ccc(-c2cc(-c3ccc(/N=C/c4c(O)ccc5ccccc45)cc3)ncn2)cc1 [CBK261621]	112.082%
COCCc1nsc(N2CCC(Oc3cccnc3N(C)C)C2)n1 (stereo not shown) [CBK305418]	84.2626%
O=C(O)c1ccc(CNC(=S)Nc2ccc([N+](=O)[O-])cc2)cc1 [CBK267037]	157.348%
C[C@]12CN(C3CCSC3)C[C@H]1C(=O)Nc1ccccc1C(=O)N2 (stereo partly shown) [CBK284788]	138.212%
Clc1cncc(N2CCCC2)n1 [CBK083595]	84.0674%
COc1ccc(-c2nc(NC(=O)c3ccccn3)cnc2-c2cccc(C(F)(F)F)c2)cc1 [CBK036785]	129.926%
CC(C)CNS(=O)(=O)c1ccc(N2CCCC2=O)cc1 [CBK304981]	90.2787%
Cc1ccsc1C(=O)N1CCC(n2cc(C(C)(C)O)nn2)CC1 [CBK307069]	125.623%
O=C(O)CSc1nc2ccc(NC(=O)COc3ccc(Cl)cc3)cc2s1 [CBK299773]	194.767%
CSc1nc(C#N)c(N)c(SC2C=CCCC2)n1 (stereo not shown) [CBK021817]	139.837%
CC(=O)N(C)c1ncc(Br)cc1C(=O)NCc1ccc2c(c1)CCO2 [CBK076544]	109.925%
Cc1ccc(Cl)c(OC(C)C(=O)NCC2(N3CCOCC3)CCSC2)c1 (stereo not shown) [CBK305681]	118.153%
COc1ccc(CNc2ccc(C3c4ccsc4CCN3C(C)=O)cc2)cc1 (stereo not shown) [CBK286444]	123.971%
CC12CCC(C(=O)O)(c3nc4cc([N+](=O)[O-])ccc4nc31)C2(C)C (stereo not shown) [CBK266577K]	96.4982%

SMILES	% of control remaining
COc1ccc(-c2noc(CSc3nnc(-c4cccs4)n3-c3ccccc3)n2)cc1 [CBK268390]	90.1737%
Cc1cc(C)n(Cc2cccc(C(=O)NC(C)Cc3ccccn3)c2)n1 (stereo not shown) [CBK281449]	95.6844%
CC(C)c1ccc(-c2csc(Nc3cccc(C(=O)O)c3)n2)cc1 [CBK299880]	111.045%
CC1CCN(S(=O)(=O)c2ccc3c(c2)oc(=O)c2cc(S(=O)(=O)N4CCC(C)CC4)ccc23)CC1 [CBK266314]	196.882%
COc1ccc(CNC(=O)c2cnc(-c3ccc(F)cc3)c(-c3ccc(C(C)=O)s3)c2)cc1 [CBK036577]	151.054%
O=S(=O)(Nc1nc2c(s1)CCCC2)c1cc(Cl)ccc1Cl [CBK096578]	106.902%
CCCC(=O)c1ccc(S(=O)(=O)N2CCN(CCCOC3CCCCO3)CC2)cc1 (stereo not shown) [CBK062858]	70.2302%
CC(=O)Nc1cccc(CN(C)C(CCO)c2ccccc2)c1 (stereo not shown) [CBK305127]	131.287%
O=C(O)c1cccc(NS(=O)(=O)c2ccc3c(c2)CN(C(=O)C(F)(F)F)CC3)c1 [CBK155709]	134.847%
O=C(Nc1ccncc1)c1c(O)c2ccccc2[nH]c1=O [CBK288017]	121.134%
COc1ccc2[nH]cc(CCNC(=O)N3CCN(CCN4CCOCC4)CC3)c2c1 [CBK155818]	112.606%
CC(CNC(=O)c1cncc(Br)c1)NC(=O)c1cncc(Br)c1 (stereo not shown) [CBK262040]	106.084%
CC(=O)Nc1ccc(OCC(O)Cn2c(CO)nc3ccccc32)cc1 (stereo not shown) [CBK304549]	118.64%
CCN(CC)C(=O)Cc1cc(C(=O)O)c2ccccc2n1 [CBK286942]	94.8179%
Cc1nc(-c2ccc(N3CC(C(N)=O)CCC3C)nc2)[nH]c(=O)c1C (stereo not shown) [CBK306463]	82.1227%
CC1(C)CC(N(Cc2ccc(F)cc2)Cc2c[nH]cn2)CC(C)(C)N1 [CBK282540]	126.602%
CC(=O)c1cccc(NS(=O)(=O)c2ccc(OC(F)(F)F)cc2)c1 [CBK043606]	121.837%
O=C1CC(c2ccccc2)c2snc(C(=O)O)c2N1 (stereo not shown) [CBK287111]	115.845%
O=C(CN(c1cccc(Cl)c1)S(=O)(=O)c1ccccc1)NN=C1CCCCCC1 [CBK262519]	120.1%
Cc1ccc(C(=O)N2C[C@H]3NC(=O)c4ccccc4C(=O)[C@@]3(C)C2)cc1 [CBK285315]	131.749%
CC(=O)N1CCN(C(C(=O)O)c2c[nH]c3cc(NC(=O)c4ccccc4)ccc23)CC1 (stereo not shown) [CBK286680]	153.025%
CCn1cc(C(=O)N2CCCC2c2nccs2)c(=O)c2ccc(C)nc21 (stereo not shown) [CBK307171]	141.234%
O=P(O)(CCc1ccncc1)CN1CCOCC1 [CBK262317]	118.333%
Cc1ccc(S(=O)(=O)CC(CN2CCOCC2)N2CCOCC2)cc1 (stereo not shown) [CBK264590]	100%

Quoted from the listing:
Entry of CC1CCN(S(=O)(=O)c2ccc3c(c2)oc(=O)c2cc(S(=O)(=O)N4CCC(C)CC4)ccc23)CC1 [CBK266314] under % of control remaining: 196.882%
Entry of Cc1cc(C)n(Cc2cccc(C(=O)NC(C)Cc3ccccn3)c2)n1 (stereo not shown) [CBK281449] under % of control remaining: 95.6844%
Entry of COc1ccc(CNC(=O)c2cnc(-c3ccc(F)cc3)c(-c3ccc(C(C)=O)s3)c2)cc1 [CBK036577] under % of control remaining: 151.054%
Entry of CC(CNC(=O)c1cncc(Br)c1)NC(=O)c1cncc(Br)c1 (stereo not shown) [CBK262040] under % of control remaining: 106.084%
